Experimental data taken from patent US12351583B2, “Triazolopyrimidines based on thymine nucleobase and methods for producing them” (TERA STONE CO., LTD, priority 2019, dated 2025).
pIC50: −log10 of the molar value. Some results were stated once for a whole list of compounds, not compound by compound.

What was measured:
[1] = test system: CCRF-HSB-2 cells (human acute lymphoblastic leukemia); experiment: MTT cell proliferation inhibition assay, CCRF-HSB-2 cells; type: cell-based; details: cultured 3 days, probit analysis, read-out: Inhibitory concentration against tumor cell lines in vitro IC50, CCRF-HSB-2
Description: (§1) Regarding the synthesized triazolopyrimidine compounds, their cell proliferation inhibitory activities, as an index of antitumor acttivity, were examined. The test was performed by MTT assay (T. Mosmann, J. Immunol. Methods, 65, 55 (1983); M. B. Hansen, S. E. Nielsen and K. Berg, J. Immunol. Methods, 119, 203 (1989), which are incorporated by reference in their entirety.), and the cancer cells tested were CCRF-HSB-2 cells (human acute lymphoblastic leukemia) and KB cells (human […]). Cytarabine (Ara-C, cytarabine: 4-amino-1-β-D-arabinofuranosyl-2(1H)-one) and 5-fluorouracil (5-FU, 5-fluorouracil) were used as control drugs, which are antimetabolite anticancer agents used for, for example, acute leukemia and/or gastrointestinal cancer.
(§2) Human acute lymphoblastic leukemia cells (T-cells) CCRF-HSB-2 and human nasopharyngeal carcinoma-derived KB cells were cultured in RPMI 1640 medium supplemented with 10% fetal bovine serum.
(§3) Test agents were dissolved in dimethyl sulfoxide to become a concentration of 10 mg/ml and stored at 4° C. […]
(§4) • 1. […] Its absorbance at 570 nm (test wavelength) and 690 nm (reference wavelength) was measured by a microplate reader (Tosoh MPR4Ai) and the proliferation inhibition rate was determined by the following formula. […]
(§5) Tx: Absorbance of wells containing sample
(§6) Cx: Absorbance of wells containing no sample (control) • 5. […]

[2] = test system: KB cells (human nasopharyngeal carcinoma-derived); experiment: MTT cell proliferation inhibition assay, KB cells; type: cell-based; details: cultured 3 days, probit analysis, read-out: Inhibitory concentration against tumor cell lines in vitro IC50, KB
Description: as §1, §2, §3, §4, §5, §6

## CCc1nnc2c(C)c[nH]c(=O)n12 [Compound 4a]
[1]
  pIC50: ≥ 4.00
[2]
  pIC50: > 4.00
